Publication PMC8528870
Results are given in words; binding and its absence hold for the method and conditions named. In cells and extracts the contact can be indirect. Some entries that bind do so weakly or less than the wild type.

Chains of the proteins cited; added tags and fusions are not shown. Residues count along the entry.
UniProt Q9H4A6: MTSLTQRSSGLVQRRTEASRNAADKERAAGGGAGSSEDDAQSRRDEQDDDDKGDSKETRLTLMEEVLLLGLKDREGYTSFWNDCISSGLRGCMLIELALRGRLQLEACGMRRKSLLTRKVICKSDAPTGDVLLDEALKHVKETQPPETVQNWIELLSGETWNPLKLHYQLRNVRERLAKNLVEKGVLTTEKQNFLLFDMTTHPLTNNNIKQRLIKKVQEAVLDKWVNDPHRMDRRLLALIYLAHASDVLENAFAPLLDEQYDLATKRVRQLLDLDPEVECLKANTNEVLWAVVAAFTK
UniProt P56704, residues 19-352: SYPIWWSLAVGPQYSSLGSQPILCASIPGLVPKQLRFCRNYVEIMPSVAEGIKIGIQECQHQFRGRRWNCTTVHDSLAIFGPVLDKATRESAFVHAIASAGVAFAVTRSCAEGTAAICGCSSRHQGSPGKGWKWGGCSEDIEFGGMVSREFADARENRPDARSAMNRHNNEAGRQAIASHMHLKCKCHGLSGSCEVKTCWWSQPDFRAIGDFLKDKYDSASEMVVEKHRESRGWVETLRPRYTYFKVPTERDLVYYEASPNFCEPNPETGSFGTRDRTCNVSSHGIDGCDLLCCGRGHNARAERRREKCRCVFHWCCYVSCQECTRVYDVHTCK
UniProt Q07065: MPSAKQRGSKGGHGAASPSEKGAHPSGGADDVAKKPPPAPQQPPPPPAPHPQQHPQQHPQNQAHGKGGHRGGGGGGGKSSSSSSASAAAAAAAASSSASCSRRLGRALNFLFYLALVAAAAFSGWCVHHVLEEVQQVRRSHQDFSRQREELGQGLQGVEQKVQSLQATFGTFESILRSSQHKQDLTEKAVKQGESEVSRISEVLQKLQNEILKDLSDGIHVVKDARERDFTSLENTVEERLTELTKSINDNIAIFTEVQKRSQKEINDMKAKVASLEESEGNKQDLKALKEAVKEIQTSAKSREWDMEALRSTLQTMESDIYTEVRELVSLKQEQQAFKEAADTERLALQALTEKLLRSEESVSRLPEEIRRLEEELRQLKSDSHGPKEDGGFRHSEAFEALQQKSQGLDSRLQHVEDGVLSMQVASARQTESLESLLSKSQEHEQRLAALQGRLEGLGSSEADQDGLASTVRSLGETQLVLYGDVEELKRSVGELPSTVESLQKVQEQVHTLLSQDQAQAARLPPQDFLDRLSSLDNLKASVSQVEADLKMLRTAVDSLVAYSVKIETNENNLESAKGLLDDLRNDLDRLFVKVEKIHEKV

What was measured:
[1] = target: Golgi phosphoprotein 3 (GOLPH3), endogenous (human (endogenous in A549 and NCI-H460)) (UniProt Q9H4A6); assay: co-IP; endogenous proteins in A549 and NCI-H460 cells; precipitating antibody not told
[2] = target: WNT3A, exosomal (human (endogenous in NSCLC cell lines)) (UniProt P56704); assay: co-IP; in exosomes derived from GOLPH3-overexpressing cells; precipitating antibody not told
[3] = target: Golgi phosphoprotein 3 (GOLPH3), endogenous (human (endogenous in A549 and NCI-H460)) (UniProt Q9H4A6); assay: proximity ligation; endogenous proteins in fixed, permeabilised A549 and NCI-H460 cells; mouse anti-GOLPH3 and rabbit anti-CKAP4, Duolink kit
[4] = target: SFB-GOLPH3 (Golgi phosphoprotein 3) (human) (UniProt Q9H4A6); assay: proximity ligation; A549 and NCI-H460 cells transfected with SFB-Vector or SFB-GOLPH3, fixed and permeabilised; mouse anti-FLAG and rabbit anti-CKAP4, Duolink kit
[5] = target: SFB-GOLPH3 (Golgi phosphoprotein 3) (human) (UniProt Q9H4A6); assay: co-IP; A549 and NCI-H460 cells transiently transfected with SFB-vector or SFB-GOLPH3; lysate in IP lysis buffer, anti-FLAG antibody-cross-linked protein G-agarose beads overnight at 4 °C, six washes, western blot

Measured: binding

cytoskeleton-associated protein 4 (CKAP4), endogenous (from UniProt Q07065 1-602)
binds: all assays above
